No constants are given. Whether binding was seen depends on the method and setting. Binding seen in cells or lysates may run through a third protein. Binding calls can cover weak binding; strength is not graded here. Sequences can lack the tags named with a protein.

Test [1] deals with T1, endogenous P. berghei eIF2α-P (P. berghei (endogenous in blood stage parasites)).
T1 sequence (chain, phosphorylated (eIF2α-P; precipitated and detected with anti-eIF2α-P); serine 59): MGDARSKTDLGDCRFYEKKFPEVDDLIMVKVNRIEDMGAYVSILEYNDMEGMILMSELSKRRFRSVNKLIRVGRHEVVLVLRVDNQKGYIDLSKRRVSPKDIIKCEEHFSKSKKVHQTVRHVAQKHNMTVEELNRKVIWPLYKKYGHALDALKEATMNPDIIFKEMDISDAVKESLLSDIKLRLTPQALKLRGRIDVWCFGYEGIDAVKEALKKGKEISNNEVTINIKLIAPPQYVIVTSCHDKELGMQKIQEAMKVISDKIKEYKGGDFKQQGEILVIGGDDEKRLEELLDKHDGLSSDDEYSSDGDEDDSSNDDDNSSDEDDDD
In words: co-IP; whole cell extracts of P. berghei blood stage parasites, immunoprecipitation with anti-eIF2α-P or anti-UIS2 antibodies, immunoblot; endogenous proteins.

Test [2] deals with T2, endogenous P. berghei UIS2 (P. berghei (endogenous in blood stage parasites)).
T2 sequence: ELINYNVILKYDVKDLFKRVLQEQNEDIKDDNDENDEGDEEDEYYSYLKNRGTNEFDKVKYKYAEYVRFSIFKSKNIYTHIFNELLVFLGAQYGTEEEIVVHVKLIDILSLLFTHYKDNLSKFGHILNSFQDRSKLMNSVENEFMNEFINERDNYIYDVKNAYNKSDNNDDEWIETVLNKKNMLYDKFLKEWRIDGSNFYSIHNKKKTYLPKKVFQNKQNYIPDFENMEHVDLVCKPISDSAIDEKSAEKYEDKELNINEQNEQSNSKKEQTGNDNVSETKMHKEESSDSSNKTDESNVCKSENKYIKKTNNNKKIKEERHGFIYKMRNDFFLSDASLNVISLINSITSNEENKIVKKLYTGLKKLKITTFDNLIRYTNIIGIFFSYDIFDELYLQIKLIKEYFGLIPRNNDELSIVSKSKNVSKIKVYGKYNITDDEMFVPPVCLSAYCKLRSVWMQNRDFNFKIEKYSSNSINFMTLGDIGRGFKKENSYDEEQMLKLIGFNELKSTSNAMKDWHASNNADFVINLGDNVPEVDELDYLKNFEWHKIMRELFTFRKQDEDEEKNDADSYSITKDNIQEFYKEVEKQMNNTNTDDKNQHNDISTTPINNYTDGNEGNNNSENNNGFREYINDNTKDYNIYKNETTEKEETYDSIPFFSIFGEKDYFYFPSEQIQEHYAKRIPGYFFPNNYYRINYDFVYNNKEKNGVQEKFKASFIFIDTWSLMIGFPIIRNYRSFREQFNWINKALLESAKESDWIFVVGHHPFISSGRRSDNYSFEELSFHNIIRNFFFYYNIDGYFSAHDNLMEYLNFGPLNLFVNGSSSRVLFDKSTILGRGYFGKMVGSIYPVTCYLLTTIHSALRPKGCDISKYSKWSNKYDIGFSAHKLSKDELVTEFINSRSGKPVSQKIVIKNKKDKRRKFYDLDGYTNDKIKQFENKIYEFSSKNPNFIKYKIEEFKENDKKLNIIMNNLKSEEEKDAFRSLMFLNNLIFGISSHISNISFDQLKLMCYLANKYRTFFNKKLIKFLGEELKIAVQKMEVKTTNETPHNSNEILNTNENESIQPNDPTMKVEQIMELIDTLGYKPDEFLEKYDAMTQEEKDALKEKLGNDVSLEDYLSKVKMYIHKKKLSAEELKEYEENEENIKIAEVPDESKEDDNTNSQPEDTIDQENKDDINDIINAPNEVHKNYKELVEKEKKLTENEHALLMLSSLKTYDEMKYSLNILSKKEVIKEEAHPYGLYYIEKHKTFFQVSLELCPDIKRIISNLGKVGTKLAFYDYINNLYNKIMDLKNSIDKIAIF
The description is as above.

B1: endogenous P. berghei UIS2 (enzyme, UniProt A0A509AQ20 23-1322)
chain: ELINYNVILKYDVKDLFKRVLQEQNEDIKDDNDENDEGDEEDEYYSYLKNRGTNEFDKVKYKYAEYVRFSIFKSKNIYTHIFNELLVFLGAQYGTEEEIVVHVKLIDILSLLFTHYKDNLSKFGHILNSFQDRSKLMNSVENEFMNEFINERDNYIYDVKNAYNKSDNNDDEWIETVLNKKNMLYDKFLKEWRIDGSNFYSIHNKKKTYLPKKVFQNKQNYIPDFENMEHVDLVCKPISDSAIDEKSAEKYEDKELNINEQNEQSNSKKEQTGNDNVSETKMHKEESSDSSNKTDESNVCKSENKYIKKTNNNKKIKEERHGFIYKMRNDFFLSDASLNVISLINSITSNEENKIVKKLYTGLKKLKITTFDNLIRYTNIIGIFFSYDIFDELYLQIKLIKEYFGLIPRNNDELSIVSKSKNVSKIKVYGKYNITDDEMFVPPVCLSAYCKLRSVWMQNRDFNFKIEKYSSNSINFMTLGDIGRGFKKENSYDEEQMLKLIGFNELKSTSNAMKDWHASNNADFVINLGDNVPEVDELDYLKNFEWHKIMRELFTFRKQDEDEEKNDADSYSITKDNIQEFYKEVEKQMNNTNTDDKNQHNDISTTPINNYTDGNEGNNNSENNNGFREYINDNTKDYNIYKNETTEKEETYDSIPFFSIFGEKDYFYFPSEQIQEHYAKRIPGYFFPNNYYRINYDFVYNNKEKNGVQEKFKASFIFIDTWSLMIGFPIIRNYRSFREQFNWINKALLESAKESDWIFVVGHHPFISSGRRSDNYSFEELSFHNIIRNFFFYYNIDGYFSAHDNLMEYLNFGPLNLFVNGSSSRVLFDKSTILGRGYFGKMVGSIYPVTCYLLTTIHSALRPKGCDISKYSKWSNKYDIGFSAHKLSKDELVTEFINSRSGKPVSQKIVIKNKKDKRRKFYDLDGYTNDKIKQFENKIYEFSSKNPNFIKYKIEEFKENDKKLNIIMNNLKSEEEKDAFRSLMFLNNLIFGISSHISNISFDQLKLMCYLANKYRTFFNKKLIKFLGEELKIAVQKMEVKTTNETPHNSNEILNTNENESIQPNDPTMKVEQIMELIDTLGYKPDEFLEKYDAMTQEEKDALKEKLGNDVSLEDYLSKVKMYIHKKKLSAEELKEYEENEENIKIAEVPDESKEDDNTNSQPEDTIDQENKDDINDIINAPNEVHKNYKELVEKEKKLTENEHALLMLSSLKTYDEMKYSLNILSKKEVIKEEAHPYGLYYIEKHKTFFQVSLELCPDIKRIISNLGKVGTKLAFYDYINNLYNKIMDLKNSIDKIAIF
In the case of B1, in test [1], the binding entry is on record as “binds”.

B2: endogenous P. berghei eIF2α-P (protein, UniProt A0A509AJP9 1-326)
chain: MGDARSKTDLGDCRFYEKKFPEVDDLIMVKVNRIEDMGAYVSILEYNDMEGMILMSELSKRRFRSVNKLIRVGRHEVVLVLRVDNQKGYIDLSKRRVSPKDIIKCEEHFSKSKKVHQTVRHVAQKHNMTVEELNRKVIWPLYKKYGHALDALKEATMNPDIIFKEMDISDAVKESLLSDIKLRLTPQALKLRGRIDVWCFGYEGIDAVKEALKKGKEISNNEVTINIKLIAPPQYVIVTSCHDKELGMQKIQEAMKVISDKIKEYKGGDFKQQGEILVIGGDDEKRLEELLDKHDGLSSDDEYSSDGDEDDSSNDDDNSSDEDDDD
modifications: phosphorylated (eIF2α-P; precipitated and detected with anti-eIF2α-P); serine 59
Regarding B2, in test [2], the binding entry was “binds”.
